Assay results as given in PubChem BioAssay AID588391 (Broad Institute, 2011).
Screen size: about 350,000 compounds; about 180 (0.051%) were called active. Inconclusive means that the source gave no clear call. Such entries were picked first, then a sample of the others.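 How the source made its calls: active means mean inhibition across replicates of 30% or more, whatever share of single replicates reach that level; inconclusive means mean inhibition below 30% while every single replicate reaches 30%; inactive means the rest.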

Chains of the proteins cited; added tags and fusions are not shown.
UniProt P07237, whole entry, looked up: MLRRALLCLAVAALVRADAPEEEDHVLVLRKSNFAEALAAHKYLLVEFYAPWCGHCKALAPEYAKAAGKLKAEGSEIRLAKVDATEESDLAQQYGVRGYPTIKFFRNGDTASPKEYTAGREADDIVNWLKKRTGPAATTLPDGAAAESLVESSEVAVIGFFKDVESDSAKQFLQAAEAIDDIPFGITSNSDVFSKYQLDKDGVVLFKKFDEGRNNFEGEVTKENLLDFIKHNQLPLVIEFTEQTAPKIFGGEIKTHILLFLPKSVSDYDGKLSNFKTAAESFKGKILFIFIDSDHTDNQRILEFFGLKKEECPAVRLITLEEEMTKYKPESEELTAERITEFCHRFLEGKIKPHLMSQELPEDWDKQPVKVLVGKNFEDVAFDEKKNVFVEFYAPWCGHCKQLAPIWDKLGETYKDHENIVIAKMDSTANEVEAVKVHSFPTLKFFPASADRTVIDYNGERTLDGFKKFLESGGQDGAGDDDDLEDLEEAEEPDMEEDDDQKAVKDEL

What follows are compounds tested against Protein disulfide-isomerase (Homo sapiens) (UniProt P07237) (assay: blockers of PDI-driven insulin aggregation – biochemical, turbidity, single point, plate reader, primary screen (AID 588391;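 further: absorbance from insulin aggregation driven by PDI reduction with DTT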)). Details: A650, 90 min, at 10 µM, active compounds read high.

Row | SMILES | inhibition
1 | Cn1nccc1C(=O)Nc1ccc(S(=O)(=O)N2CCCC2)cc1 | inconclusive: 32.8%
2 | C[C@@H](CN1C2=NC[C@H](Cc3ccc(O)cc3)N2C[C@H]1Cc1ccc(O)cc1)NC(=O)CCC1CCCCC1 | active: 47.4%
3 | CCC(=O)Nc1ccc(-c2cc3ccccc3oc2=O)cc1 | inconclusive: 39.6%
4 | C[C@@H]1O[C@@H](O[C@H]2[C@H](O)[C@@H](O)[C@H](Oc3c(-c4ccc(O)cc4)oc4cc(O)cc(O)c4c3=O)O[C@@H]2CO)[C@H](O)[C@H](O)[C@H]1O | active: 54.9%
5 | COc1ccc(C2c3ccc(O)cc3Oc3ncn(Cc4ccco4)c(=N)c32)cc1OC (stereo not given) | active: 32.7%
6 | COc1cc2c(cc1NC(=O)c1cc(-c3ccccn3)nc3ccccc13)oc1ccccc12 | inconclusive: 33.1%
7 | CNc1ncnc2c1ncn2[C@H]1CN(Cc2cccc3ccccc23)C[C@@H](CO)O1 | inconclusive: 34.1%
8 | CCOC(=O)CC(=O)CSc1nc(-c2ccc3c(c2)OCO3)cc(C(F)(F)F)c1C#N | inactive: 0.705%
9 | CC1CC(C)CN(C(=O)COC(=O)c2ccc[nH]c2=O)C1 (stereo not given) | inconclusive: 32.5%
10 | O=C(Nc1ccc(Br)cc1)Nc1ccccc1F | inactive: 15.6%
11 | CCCC(C)(C)C(=O)N1CCC1(C)C(=O)NS(=O)(=O)c1ccc(Cl)cc1 (stereo not given) | inactive: -4.81%
12 | Cc1nn(CC(=O)NCC2CCCO2)c(C)c1[N+](=O)[O-] (stereo not given) | inconclusive: 30.7%
13 | O=C(CCl)Nc1nc(-c2ccco2)c(-c2ccco2)s1 | active: 62.2%
14 | Cc1cccc(C(=O)OCC(=O)N2CCCCCC2)c1O | inconclusive: 30.4%
15 | O=C(c1ccc(OCCN2CCCCC2)cc1)c1c(-c2ccc(O)cc2)sc2cc(O)ccc12 | inconclusive: 31.9%
16 | Oc1cccc(-c2nc3c4c(ncn3n2)-c2ccccc2CC42CCCC2)c1 | inconclusive: 31.2%
17 | O=C(c1ccco1)N1CCN(Cc2cc(=O)oc3cc(O)ccc23)CC1 | inconclusive: 33.5%
18 | O=C1CCC(=O)N1CCc1c[nH]c2ccccc12 | inconclusive: 40.3%
19 | Cc1ccccc1NCC(=O)N/N=C/c1c[nH]c2ccccc12 | inconclusive: 30.3%
20 | N#CC(C(=O)NCCc1ccccc1)c1nc2ccccc2nc1N1CCCCC1 (stereo not given) | inactive: 10.6%
21 | O=C(Nc1ccc(S(=O)(=O)N2CCCC2)cc1)c1cccs1 | inactive: -3.46%
22 | Cc1ccnc2c(N3C(=O)C4C5C=CC(C5)C4C3=O)cccc12 (stereo not given) | inactive: -4.98%
23 | Cc1ccc(N=C2C(=S)N(c3ccc(C)cc3)C(=N)N2/N=C/c2ccc(Cl)cc2)cc1 | inconclusive: 30.1%
24 | O=C(CSc1n[nH]c(-c2ccccc2)n1)Nc1ccccc1O | inconclusive: 34.9%
25 | CCc1cc(OCCCCNCc2ccccc2)ccc1Cl | active: 54.2%
26 | CC(C)Oc1cccc(C(=O)NC(=S)Nc2cccc(NC(=O)c3ccccc3Cl)c2)c1 | inconclusive: 37.1%
27 | O=C(Oc1ccc(=O)n(-c2ccccc2)n1)c1cccc(Cl)c1 | inconclusive: 31.8%
28 | COc1cc(/C=C2\SC(=S)N(NC(=O)c3ccncc3)C2=O)ccc1O | inconclusive: 34.2%

Row | SMILES | inhibition
29 | COCCN(C(=O)CCc1nnc(CCc2c[nH]c3ccccc23)o1)C(C)C | inactive: 14.2%
30 | O=C(O)CN1C(=O)/C(=C\c2ccc(OC(=O)c3ccco3)cc2)SC1=S | active: 43.1%
31 | CCCCC1CCC(c2nc(-c3ccccn3)no2)CC1 (stereo not given) | inconclusive: 37.8%
32 | CCOC(=O)c1c(CN(C)C)n(-c2ccccc2)c2cc(Br)c(O)cc12 | active: 39.9%
33 | Cc1c(-n2cc(C(=O)c3cc(Br)ccc3O)cc(C#N)c2=O)c(=O)n(-c2ccccc2)n1C | active: 35.2%
34 | Cc1ccc2c(c1)Oc1ccc(NC(=O)CCl)cc1C(=O)N2 | active: 92.1%
35 | Cc1[nH]n(-c2ccccc2)c(=O)c1/C=N/Nc1nncc(-c2ccccc2)n1 | inactive: 2.09%
36 | Cc1nnc(N/N=C/c2ccc(-c3ccccc3F)o2)n1N | inconclusive: 36.8%
37 | O=C(Nc1cccc2ccccc12)N1CCN(c2ccccc2)CC1 | inactive: -3.37%
38 | COc1ccc(C(=O)Nc2ccccc2C(=O)NCc2ccco2)cc1 | inconclusive: 69.5%
39 | COc1ccc(N=Cc2c(O)[nH]c3ccccc23)cc1OC | inconclusive: 37%
40 | CCOC(=O)c1sc2nccc(N(C)C)c2c1N=CNOCc1c(F)cccc1Cl | inconclusive: 35.1%
41 | COC(=O)c1ncccc1SC | inconclusive: 30.9%
42 | N#Cc1ccccc1CSc1nnc(Cc2ccccc2)o1 | inconclusive: 33.5%
43 | CC(C)c1ccc(Nc2nc(CC(=O)O)cs2)cc1 | inconclusive: 43.9%
44 | CC(C)Sc1nnc([C@H](Cc2c[nH]c3ccccc23)NC(=O)OC(C)(C)C)o1 | active: 43.7%
45 | O=C1Nc2ccccc2C12OCCCO2 | inactive: -5.76%
46 | O=C(CC1SC2=NCCN2C1=O)Nc1ccc(Br)cc1 (stereo not given) | inactive: -9.56%
47 | O=C(NC(Cc1ccc(O)cc1)C(=O)N=Nc1c(O)[nH]c2ccccc12)c1ccccc1 (stereo not given) | active: 44.9%
48 | O=C(Nc1ccccc1)c1cc(S(=O)(=O)N2CCOCC2)cs1 | inactive: -2.5%
49 | C#CCOCCOCCOCCNc1nc(N2CCN(C(=O)[C@H](CCCCN)n3cc([C@@H](N)CC(C)C)nn3)CC2)nc(N2CCN(C(=O)[C@H](Cc3cc4ccccc4[nH]3)n3cc([C@@H](N)Cc4ccc(O)cc4)nn3)CC2)n1 | active: 34.5%
50 | COc1ccc(OCC(=O)NNC(=S)NC(=O)C2CCCCC2)cc1 | inconclusive: 52.8%
51 | Cc1cc(=O)[nH]c(-n2[nH]c(C)cc2=O)n1 | inconclusive: 31.1%
52 | O=C1NC(Cc2ccc(O)cc2)c2nc3cc(F)ccc3c(=O)n2-c2ncccc21 (stereo not given) | inconclusive: 33.9%
53 | COc1cccc(C(=O)NCCOc2cc(C)cc(C)c2)c1 | inactive: 16.5%
54 | Nc1ccc(-c2cc(NC=O)c3ncc(-c4cccc(C(F)(F)F)c4)n3c2)cn1 | inactive: 2.6%
55 | COc1ccc(C(=O)Oc2cc(/C=N/NS(=O)(=O)c3ccccc3)ccc2OC)cc1 | inconclusive: 35.9%

Given with tabs: entries from further up.
Row	SMILES	inhibition
11	CCCC(C)(C)C(=O)N1CCC1(C)C(=O)NS(=O)(=O)c1ccc(Cl)cc1 (stereo not given)	inactive: -4.81%
12	Cc1nn(CC(=O)NCC2CCCO2)c(C)c1[N+](=O)[O-] (stereo not given)	inconclusive: 30.7%
13	O=C(CCl)Nc1nc(-c2ccco2)c(-c2ccco2)s1	active: 62.2%
